Results deposited as PubChem BioAssay AID504784 (Drosophila RNAi Screening Center, 2011).

Aim: 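Fly genes whose silencing alters how much lipid cells keep in droplets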 (primary screen)
Cell system: Drosophila Kc167 embryonic cells
Knock-down reagent: long dsRNA against Drosophila genes, about 250 ng dsRNA per well
Duration: 4 days
Treatment: cells fed 400 µM oleic acid bound to BSA
Read-out: 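Cells imaged and segmented; ratio of lipid droplet area to nuclear area, log-transformed, then normalised as a B-score over the screen; higher means more stored lipid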
Scale: droplet/nuclear area B-score: higher = more stored lipid (overstorage)
In all, the deposit lists about 17,000 reagents; below is an unselected part of those with a known target gene and a result. 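Each column is one replicate's B-score; the combined score over replicates was not deposited, so single values may mislead.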 Reagents against one gene are numbered here. Further read-outs or replicates are left out here.

CG12069 | droplet/nuclear area B-score, replicate 1: -0.485
CG15387 | droplet/nuclear area B-score, replicate 1: -0.116
CG12662 | droplet/nuclear area B-score, replicate 1: -0.953
CG31270 (retired record) | droplet/nuclear area B-score, replicate 1: 0.384
Tat | droplet/nuclear area B-score, replicate 1: -2.51
Decay | droplet/nuclear area B-score, replicate 1: 1.06
CG32277 | droplet/nuclear area B-score, replicate 1: -1.82
Muc91C #1 | droplet/nuclear area B-score, replicate 1: 0.716
Muc91C #2 | droplet/nuclear area B-score, replicate 1: -0.276
cbc | droplet/nuclear area B-score, replicate 1: 0.62
gce #1 | droplet/nuclear area B-score, replicate 1: 0.184
gce #2 | droplet/nuclear area B-score, replicate 1: -0.795
ninaC | droplet/nuclear area B-score, replicate 1: -1.73
tll | droplet/nuclear area B-score, replicate 1: 0.0955
fand | droplet/nuclear area B-score, replicate 1: -0.563
CG6282 | droplet/nuclear area B-score, replicate 1: -0.931
Hsp60A | droplet/nuclear area B-score, replicate 1: -1.37
CG13032 | droplet/nuclear area B-score, replicate 1: 0.0405
Gart | droplet/nuclear area B-score, replicate 1: -0.12
fd96Cb | droplet/nuclear area B-score, replicate 1: 0.202
Ing3 | droplet/nuclear area B-score, replicate 1: 0.035
CG11504 | droplet/nuclear area B-score, replicate 1: -5.58
CG33308 | droplet/nuclear area B-score, replicate 1: 2.17
CG4630 | droplet/nuclear area B-score, replicate 1: 1.36
Sar1 #1 | droplet/nuclear area B-score, replicate 1: 0.862
Sar1 #2 | droplet/nuclear area B-score, replicate 1: -1.75
Lar #1 | droplet/nuclear area B-score, replicate 1: 2.57
Lar #2 | droplet/nuclear area B-score, replicate 1: 1.61
CG12926 #1 | droplet/nuclear area B-score, replicate 1: 1.03
CG12926 #2 | droplet/nuclear area B-score, replicate 1: 4.42
GstE14 | droplet/nuclear area B-score, replicate 1: 0.539
NC2alpha | droplet/nuclear area B-score, replicate 1: 0.744
Cdk2 | droplet/nuclear area B-score, replicate 1: -0.328
CG13601 | droplet/nuclear area B-score, replicate 1: 7.21
Ids | droplet/nuclear area B-score, replicate 1: 0.102
JMJD5 | droplet/nuclear area B-score, replicate 1: -1.17
CG30428 | droplet/nuclear area B-score, replicate 1: -0.88
Vha36-3 | droplet/nuclear area B-score, replicate 1: -0.0175
CG5171 | droplet/nuclear area B-score, replicate 1: 0.0485
CG31949 | droplet/nuclear area B-score, replicate 1: 0.771

Sorted by “droplet/nuclear area B-score, replicate 1” (highest first): some entries from above.
CG12926 #2 | droplet/nuclear area B-score, replicate 1: 4.42
GstE14 | droplet/nuclear area B-score, replicate 1: 0.539
